Patent US20210052566A1, “METHODS FOR TREATING HEPATITIS B VIRUS (HBV) INFECTION” (INSERM (INSTITUT NATIONAL DE LA SANTÉ ET DE LA RECHERCHE …, priority 2018, published 2021)
For at least one compound, name, drawing or mass did not settle the structure.

How the values were obtained:
HBV genotype D [1] = test: Anti-HBV properties in persistently infected dHepaRG cells, genotype D (post-infection treatment); type: cell-based, Hepatitis B virus; conditions: treated three times with 10 microM
Method: FIG. 1. Experimental outlines. Treatment schemes: (a) Treatments in pre-infection: dHepaRG cells were treated for 24 h (at day −1) with 100 nM of PreS1 peptide (PreS1-pep) or 10 μM of 1C8, or untreated (NT). At day 0, cells were inoculated with HBV (MOI=250) or with HDV (MOI=25) in the presence of drugs for 24 h. For the tenofovir control (TDF at 10 μM), cells were treated at day 1 and 4 post-infection. Supernatant and cells were harvested at day 7 post-infection. (b) Treatments in post-infection: dHepaRG cells were inoculated with HBV (MOI=250) or with HDV (MOI=25). At days 4, 7 and 9 post infection, cells were treated with TDF 10 μM, lamivudine (3TC) at 10 μM, 1C8 10 μM or untreated (NT). […]
FIG. 5. […] B) HBs and HBe secreted antigens in supernatant were quantified by ELISA, whereas HBV DNA contained in virions was quantified by qPCR after viral nucleic acid extraction from supernatant. C) Intracellular HDV RNA was quantified by RTqPCR after total RNA extraction from cells. D) Viability was monitored in 1C8-treated (or control treated; puromycin is a positive toxic molecule) cells by CellTiter-Glo® luminescent cell viability assay. […] Statistics were done by two-tailed Mann-Whitney test, with following significativity: *P<0.05, **P<0.01, ***P<0.001, ****P<0.0001. nd=not determined […]
A HBV standard was used for quantification of extracellular viral DNA and RNA. […]

HBV genotype D [2] = test: HBV replication in persistently infected primary human hepatocytes (PHH); type: cell-based, Hepatitis B virus; conditions: 10 microM
From the text: FIG. 9. Effect of 1C8 on persistently infected primary human hepatocytes. Two different batches of PHH from two different donors were used in these experiments (Batch 1: panels A, B, and C; Batch 2: panels D, and E). A) PHH were infected with HBV genotype D at a MOI of 100 vge/cell for 4 days before being treated trice every 2-3 days with indicated molecules at a concentration of 10 microM. B) Intracellular total RNA were extracted from cells and subjected to RT-qPCR to detect HBV pgRNA and total HBV RNA. C) HBs and HBe secreted antigens in supernatant were quantified by ELISA. D) PHH were infected with HBV genotype D at a MOI of 100 vge/cell. 6 days after the infection, cells were treated five times with indicated molecules at a concentration of 10 microM. Supernatant was harvested after each treatment and cells were harvested at day 13 post infection. E) HBe and HBs secreted antigens in supernatant were quantified by ELISA. Results are the mean+SD of n=3 (panels A, B, and C) or n=4 (panels D and E).
Primary human hepatocytes (PHH) were freshly prepared from human liver resections obtained from the Centre Léon Bérard (Lyon) with French ministerial authorizations as previously described (Leycluse and Alexandre, 2010). […]
Secreted HBe and HBs antigens and intracellular HBV RNA were analyzed as described in EXAMPLE 1.

## Nc1ccn([C@@H]2CS[C@H](CO)O2)c(=O)n1 [lamivudine, reference compound]
HBV genotype D [1]
  impact on accumulation of intracellular HBV RNA: not capable to impact
HBV genotype D [2]
  effect on secreted viral antigens HBe and HBs: not affected
